Our source for the binding values is article PMC5155146, “Thioredoxin-interacting protein regulates haematopoietic stem cell ageing and rejuvenation by inhibiting p38 kinase activity” (Nature Communications, 2016).

No constants are given. Whether binding was seen depends on the method and setting. Binding seen in cells or lysates may run through a third protein. A result given as binding can be weak or reduced; the word gives no strength.

Assay [1] addresses T1, thioredoxin-interacting protein (TXNIP), endogenous mouse (mouse (endogenous in BM cells and HSCs)) (UniProt Q8BG60).
T1 sequence: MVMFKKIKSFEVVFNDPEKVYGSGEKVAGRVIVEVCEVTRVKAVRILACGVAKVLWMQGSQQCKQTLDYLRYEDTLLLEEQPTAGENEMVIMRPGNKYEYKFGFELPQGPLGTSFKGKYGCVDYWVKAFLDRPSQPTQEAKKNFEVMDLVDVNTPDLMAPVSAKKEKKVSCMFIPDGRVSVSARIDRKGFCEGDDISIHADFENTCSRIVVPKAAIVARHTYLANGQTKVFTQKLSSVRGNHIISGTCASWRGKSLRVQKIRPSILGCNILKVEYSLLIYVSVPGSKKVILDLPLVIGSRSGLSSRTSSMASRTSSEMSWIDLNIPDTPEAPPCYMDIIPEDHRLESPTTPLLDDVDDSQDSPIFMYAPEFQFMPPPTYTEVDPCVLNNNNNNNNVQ
Briefly: co-IP; immunoprecipitation in old mouse BM cells treated with 10 μM TAT or TAT-TN13 for 1 h.

Assay [2] has as its target T1, thioredoxin-interacting protein (TXNIP), endogenous mouse (mouse (endogenous in BM cells and HSCs)). Briefly: proximity ligation; in situ PLA in old LT-HSCs treated with 10 μM TAT or TAT-TN13 for 1 h.

Take “p38 mitogen-activated protein kinase (p38), endogenous mouse (enzyme)”: the binding entry in assay [1] and in assay [2] was “binds” each time.
